Experimental data: the supplement of paper PMC10849652
The other results are listed elsewhere or left out.

Amino acid sequences for entries named in this document (tags omitted). A change or cut given only in a name is not applied to a line headed by its entry.
UniProt A1L020: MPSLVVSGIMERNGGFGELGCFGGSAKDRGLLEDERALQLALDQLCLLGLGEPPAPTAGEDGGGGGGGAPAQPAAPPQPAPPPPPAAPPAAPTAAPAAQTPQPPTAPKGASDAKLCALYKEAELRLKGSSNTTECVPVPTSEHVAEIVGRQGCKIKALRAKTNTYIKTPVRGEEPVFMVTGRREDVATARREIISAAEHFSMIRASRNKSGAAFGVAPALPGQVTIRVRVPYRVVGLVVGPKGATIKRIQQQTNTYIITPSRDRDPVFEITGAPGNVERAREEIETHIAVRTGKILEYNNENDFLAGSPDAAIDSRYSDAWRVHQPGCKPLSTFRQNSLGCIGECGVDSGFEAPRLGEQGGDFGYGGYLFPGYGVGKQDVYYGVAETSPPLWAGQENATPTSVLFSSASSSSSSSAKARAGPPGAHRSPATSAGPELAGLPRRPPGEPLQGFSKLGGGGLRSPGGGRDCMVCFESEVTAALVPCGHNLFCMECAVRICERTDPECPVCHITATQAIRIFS
UniProt P43243: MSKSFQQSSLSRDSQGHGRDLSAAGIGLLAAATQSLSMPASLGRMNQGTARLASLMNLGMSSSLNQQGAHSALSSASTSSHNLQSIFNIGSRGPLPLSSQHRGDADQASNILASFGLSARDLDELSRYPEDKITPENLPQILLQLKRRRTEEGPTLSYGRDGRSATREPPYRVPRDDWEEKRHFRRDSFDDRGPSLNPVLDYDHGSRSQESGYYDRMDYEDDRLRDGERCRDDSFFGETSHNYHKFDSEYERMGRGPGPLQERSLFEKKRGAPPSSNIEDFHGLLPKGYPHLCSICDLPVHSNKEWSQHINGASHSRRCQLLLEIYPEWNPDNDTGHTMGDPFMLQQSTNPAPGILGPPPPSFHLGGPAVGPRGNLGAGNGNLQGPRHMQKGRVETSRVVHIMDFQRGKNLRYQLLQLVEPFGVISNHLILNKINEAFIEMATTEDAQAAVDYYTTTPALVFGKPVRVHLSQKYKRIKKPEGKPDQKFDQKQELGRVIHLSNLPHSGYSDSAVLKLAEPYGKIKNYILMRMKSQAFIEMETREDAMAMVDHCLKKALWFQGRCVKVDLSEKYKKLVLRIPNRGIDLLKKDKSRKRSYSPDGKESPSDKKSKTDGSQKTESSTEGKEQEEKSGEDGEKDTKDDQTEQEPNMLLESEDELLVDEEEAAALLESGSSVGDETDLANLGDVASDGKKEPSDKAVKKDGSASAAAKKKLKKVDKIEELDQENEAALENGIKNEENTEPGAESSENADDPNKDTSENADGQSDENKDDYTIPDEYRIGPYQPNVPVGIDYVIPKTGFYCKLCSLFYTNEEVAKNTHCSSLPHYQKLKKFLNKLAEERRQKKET
UniProt O95568: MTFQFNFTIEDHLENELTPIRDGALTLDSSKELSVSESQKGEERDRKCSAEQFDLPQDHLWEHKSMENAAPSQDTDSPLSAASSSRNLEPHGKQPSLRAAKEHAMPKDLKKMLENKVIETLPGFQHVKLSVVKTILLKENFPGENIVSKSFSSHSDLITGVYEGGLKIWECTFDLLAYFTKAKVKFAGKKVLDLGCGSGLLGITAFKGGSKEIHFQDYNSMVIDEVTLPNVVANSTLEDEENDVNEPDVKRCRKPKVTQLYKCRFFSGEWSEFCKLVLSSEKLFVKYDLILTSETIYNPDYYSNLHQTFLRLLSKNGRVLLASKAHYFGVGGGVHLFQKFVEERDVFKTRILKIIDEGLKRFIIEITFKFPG
UniProt Q9H1A3: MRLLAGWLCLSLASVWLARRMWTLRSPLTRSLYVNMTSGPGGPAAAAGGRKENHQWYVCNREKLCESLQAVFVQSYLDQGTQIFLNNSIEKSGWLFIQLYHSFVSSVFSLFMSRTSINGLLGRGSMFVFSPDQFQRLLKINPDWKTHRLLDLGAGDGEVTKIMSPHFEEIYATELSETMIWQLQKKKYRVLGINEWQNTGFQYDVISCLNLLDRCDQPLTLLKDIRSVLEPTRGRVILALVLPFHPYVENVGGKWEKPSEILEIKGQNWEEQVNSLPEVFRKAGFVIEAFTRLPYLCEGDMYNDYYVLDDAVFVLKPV
UniProt O60318: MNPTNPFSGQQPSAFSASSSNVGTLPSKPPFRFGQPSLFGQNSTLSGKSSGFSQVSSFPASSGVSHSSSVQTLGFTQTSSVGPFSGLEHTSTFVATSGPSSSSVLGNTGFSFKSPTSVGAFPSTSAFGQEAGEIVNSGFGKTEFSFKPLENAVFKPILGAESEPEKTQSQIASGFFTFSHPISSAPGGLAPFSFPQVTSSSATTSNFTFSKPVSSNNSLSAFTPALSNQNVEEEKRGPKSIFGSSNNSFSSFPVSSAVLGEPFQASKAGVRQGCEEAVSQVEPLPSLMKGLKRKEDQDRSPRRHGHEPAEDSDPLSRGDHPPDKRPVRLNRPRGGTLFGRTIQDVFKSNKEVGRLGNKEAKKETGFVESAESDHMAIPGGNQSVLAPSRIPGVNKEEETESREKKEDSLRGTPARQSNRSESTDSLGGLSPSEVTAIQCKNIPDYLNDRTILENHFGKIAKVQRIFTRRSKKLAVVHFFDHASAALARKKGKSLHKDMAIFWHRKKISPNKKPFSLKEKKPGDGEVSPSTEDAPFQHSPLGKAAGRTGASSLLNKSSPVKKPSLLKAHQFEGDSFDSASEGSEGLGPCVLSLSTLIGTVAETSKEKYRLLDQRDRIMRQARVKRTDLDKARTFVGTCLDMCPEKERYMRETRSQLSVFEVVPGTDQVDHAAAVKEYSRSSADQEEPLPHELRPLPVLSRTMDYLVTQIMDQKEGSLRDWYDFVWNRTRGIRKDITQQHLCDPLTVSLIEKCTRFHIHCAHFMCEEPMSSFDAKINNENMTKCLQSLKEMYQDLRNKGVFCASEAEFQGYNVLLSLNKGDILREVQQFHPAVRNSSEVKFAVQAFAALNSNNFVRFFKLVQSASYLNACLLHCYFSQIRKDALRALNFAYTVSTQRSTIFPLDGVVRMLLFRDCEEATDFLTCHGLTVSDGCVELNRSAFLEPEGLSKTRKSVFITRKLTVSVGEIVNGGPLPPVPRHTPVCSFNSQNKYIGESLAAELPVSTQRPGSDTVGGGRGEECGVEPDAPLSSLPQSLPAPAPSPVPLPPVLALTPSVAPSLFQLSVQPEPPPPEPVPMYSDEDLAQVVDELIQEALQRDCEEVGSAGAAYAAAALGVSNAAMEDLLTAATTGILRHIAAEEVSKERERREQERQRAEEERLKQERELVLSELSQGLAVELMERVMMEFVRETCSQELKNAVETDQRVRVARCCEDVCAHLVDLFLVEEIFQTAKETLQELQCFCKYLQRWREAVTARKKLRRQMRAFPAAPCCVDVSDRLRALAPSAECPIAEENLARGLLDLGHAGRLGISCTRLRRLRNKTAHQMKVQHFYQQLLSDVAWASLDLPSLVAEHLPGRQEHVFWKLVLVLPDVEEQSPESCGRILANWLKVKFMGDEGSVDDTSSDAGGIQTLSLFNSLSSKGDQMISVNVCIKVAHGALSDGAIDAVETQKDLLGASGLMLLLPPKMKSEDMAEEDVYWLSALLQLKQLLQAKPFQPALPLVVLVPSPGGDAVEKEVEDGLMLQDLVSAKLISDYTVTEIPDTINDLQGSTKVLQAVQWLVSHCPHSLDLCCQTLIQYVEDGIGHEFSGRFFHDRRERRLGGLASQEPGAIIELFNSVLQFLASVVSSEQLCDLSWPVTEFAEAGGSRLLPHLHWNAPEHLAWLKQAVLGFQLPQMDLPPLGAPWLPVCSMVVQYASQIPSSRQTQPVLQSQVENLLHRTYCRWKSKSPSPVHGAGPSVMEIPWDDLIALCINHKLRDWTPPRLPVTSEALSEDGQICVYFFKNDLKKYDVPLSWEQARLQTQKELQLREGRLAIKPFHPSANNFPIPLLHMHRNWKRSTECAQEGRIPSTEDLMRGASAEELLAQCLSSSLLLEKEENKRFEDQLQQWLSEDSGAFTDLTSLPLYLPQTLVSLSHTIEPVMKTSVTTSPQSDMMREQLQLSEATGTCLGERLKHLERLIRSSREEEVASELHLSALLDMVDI
UniProt Q8WXB1: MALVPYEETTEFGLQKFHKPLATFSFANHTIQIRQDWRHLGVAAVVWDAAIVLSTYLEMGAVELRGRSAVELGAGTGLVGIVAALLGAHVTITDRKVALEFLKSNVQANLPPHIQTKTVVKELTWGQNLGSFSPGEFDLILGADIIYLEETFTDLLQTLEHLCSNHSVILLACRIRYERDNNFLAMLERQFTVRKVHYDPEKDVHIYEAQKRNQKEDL
UniProt P21741: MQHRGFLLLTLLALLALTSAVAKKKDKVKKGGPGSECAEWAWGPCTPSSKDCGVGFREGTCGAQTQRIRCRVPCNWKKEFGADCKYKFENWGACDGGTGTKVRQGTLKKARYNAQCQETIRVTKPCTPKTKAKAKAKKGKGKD
UniProt Q8TC05: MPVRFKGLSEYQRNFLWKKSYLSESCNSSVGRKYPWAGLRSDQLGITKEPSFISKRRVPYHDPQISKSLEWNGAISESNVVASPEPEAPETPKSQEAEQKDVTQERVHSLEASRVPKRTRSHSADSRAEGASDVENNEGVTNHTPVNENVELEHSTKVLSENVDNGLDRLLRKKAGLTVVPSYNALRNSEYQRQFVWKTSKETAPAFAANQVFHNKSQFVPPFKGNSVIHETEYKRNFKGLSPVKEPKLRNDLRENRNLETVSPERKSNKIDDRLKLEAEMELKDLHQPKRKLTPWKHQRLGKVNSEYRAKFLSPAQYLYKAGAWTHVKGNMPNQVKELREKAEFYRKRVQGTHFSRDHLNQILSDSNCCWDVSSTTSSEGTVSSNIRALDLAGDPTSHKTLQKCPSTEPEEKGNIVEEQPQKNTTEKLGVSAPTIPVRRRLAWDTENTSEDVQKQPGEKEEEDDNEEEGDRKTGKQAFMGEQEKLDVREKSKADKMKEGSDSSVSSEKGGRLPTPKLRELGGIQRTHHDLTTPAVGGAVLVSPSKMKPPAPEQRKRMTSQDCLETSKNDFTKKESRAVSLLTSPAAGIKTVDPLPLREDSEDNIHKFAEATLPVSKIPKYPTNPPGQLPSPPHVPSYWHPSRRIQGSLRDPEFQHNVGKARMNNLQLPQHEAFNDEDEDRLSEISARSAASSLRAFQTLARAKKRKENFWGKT
UniProt Q8N635: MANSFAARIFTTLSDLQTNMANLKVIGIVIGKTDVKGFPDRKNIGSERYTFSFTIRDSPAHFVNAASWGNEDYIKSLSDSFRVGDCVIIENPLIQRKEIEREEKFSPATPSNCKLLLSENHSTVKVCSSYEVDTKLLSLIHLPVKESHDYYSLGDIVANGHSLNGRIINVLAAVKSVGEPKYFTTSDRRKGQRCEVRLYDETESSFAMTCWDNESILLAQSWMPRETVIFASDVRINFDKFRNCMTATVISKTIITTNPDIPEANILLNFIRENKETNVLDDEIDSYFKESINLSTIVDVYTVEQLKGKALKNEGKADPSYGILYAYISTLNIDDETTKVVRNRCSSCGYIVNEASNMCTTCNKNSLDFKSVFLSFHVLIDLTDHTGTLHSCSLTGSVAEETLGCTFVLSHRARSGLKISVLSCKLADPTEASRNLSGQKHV
UniProt Q06413, whole entry, looked up: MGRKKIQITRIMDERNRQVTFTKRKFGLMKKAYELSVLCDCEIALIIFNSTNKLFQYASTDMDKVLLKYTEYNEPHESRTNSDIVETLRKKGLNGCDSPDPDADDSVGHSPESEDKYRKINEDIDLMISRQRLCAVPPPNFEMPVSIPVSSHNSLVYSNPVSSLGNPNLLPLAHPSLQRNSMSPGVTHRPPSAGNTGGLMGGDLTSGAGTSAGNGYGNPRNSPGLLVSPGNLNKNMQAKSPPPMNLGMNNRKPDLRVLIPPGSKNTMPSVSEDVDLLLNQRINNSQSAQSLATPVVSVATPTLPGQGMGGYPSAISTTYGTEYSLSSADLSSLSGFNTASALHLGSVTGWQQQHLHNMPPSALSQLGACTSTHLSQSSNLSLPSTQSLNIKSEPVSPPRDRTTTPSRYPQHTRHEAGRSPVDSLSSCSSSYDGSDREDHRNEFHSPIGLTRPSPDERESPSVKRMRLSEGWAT
UniProt C9JP00: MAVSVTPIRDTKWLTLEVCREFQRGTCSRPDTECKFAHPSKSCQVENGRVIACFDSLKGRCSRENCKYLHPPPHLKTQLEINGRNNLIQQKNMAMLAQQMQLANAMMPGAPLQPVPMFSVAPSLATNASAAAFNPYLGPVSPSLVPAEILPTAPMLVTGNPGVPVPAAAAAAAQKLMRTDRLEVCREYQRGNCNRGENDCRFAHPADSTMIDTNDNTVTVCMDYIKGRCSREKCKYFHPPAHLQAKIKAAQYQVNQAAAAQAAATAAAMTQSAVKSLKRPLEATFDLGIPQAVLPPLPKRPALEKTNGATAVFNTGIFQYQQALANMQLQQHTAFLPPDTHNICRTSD
UniProt Q9NWA0: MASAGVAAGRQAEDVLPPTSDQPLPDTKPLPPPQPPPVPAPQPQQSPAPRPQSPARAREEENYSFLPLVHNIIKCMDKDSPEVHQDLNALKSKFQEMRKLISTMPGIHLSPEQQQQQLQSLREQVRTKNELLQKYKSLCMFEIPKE

How the values were obtained:
Assay in all cases: log2 fold change, soluble protein after heating vs DMSO (PISA); higher = thermal stabilisation; K562 lysate, 10 uM; active = over 0.2 and 3.5 SD of the protein, either way, in both replicates (recomputed)
[1] = compound: Cc1cn(-c2cc(NC(=O)c3ccc(C)c(Nc4nccc(-c5cccnc5)n4)c3)cc(C(F)(F)F)c2)cn1 [nilotinib]
Outline: (§1)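 Dounce homogenisation of K562 pellets in PBS pH 7.4 with 1 mM MgCl2 produced a crude extract, used at 1 mg/mL protein. Exposure to 10 μM compound lasted 30 min, and aliquots were then heated for 3 min across 48°C-58°C, pooled and brought to 0.5% NP-40 at 4°C. The supernatant after 21,000xg for 90 min was quantified by TMTpro 16plex LC-MS/MS with channel sums equalised. Duplicate values are given as log-two fold change in thermal stability relative to solvent controls.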

[2] = compound: Cc1nc(Nc2n[nH]c3c2CN(C(=O)N[C@H](CN(C)C)c2ccccc2)C3(C)C)c2sccc2n1
Outline: as §1

[3] = compound: Cc1nc(Nc2ncc(C(=O)Nc3c(C)cccc3Cl)s2)cc(N2CCN(CCO)CC2)n1 [dasatinib]
Outline: as §1

[4] = compound: Cc1ncc(-c2ccnc(Nc3ccc(S(C)(=O)=O)cc3)n2)n1C(C)C
Outline: as §1

[5] = compound: Cn1cc(-c2ccc3c(c2)CCN3C(=O)Cc2cccc(C(F)(F)F)c2)c2c(N)ncnc21
Outline: as §1

[6] = compound: Cn1cncc1[C@@](N)(c1ccc(Cl)cc1)c1ccc2c(c1)c(-c1cccc(Cl)c1)cc(=O)n2C [tipifarnib]
Outline: as §1

[7] = compound: NCC(=O)Nc1ccc(-n2nc(C(F)(F)F)cc2-c2ccc3c(ccc4ccccc43)c2)cc1
Outline: as §1

[8] = compound: Cn1cc(CNCC2CCN(c3ncc(C(=O)NO)cn3)CC2)c2ccccc21 [quisinostat]
Outline: as §1

[9] = compound: NC(=O)Nc1cc(-c2cccc(F)c2)sc1C(=O)N[C@H]1CCCNC1
Outline: as §1

[10] = compound: NC(=O)c1cnc(N[C@@H]2CCCC[C@@H]2N)nc1Nc1cccc(-n2nccn2)c1
Outline: as §1

[11] = compound: NC1(c2ccc(-c3nc4ccn5c(=O)[nH]nc5c4cc3-c3ccccc3)cc2)CCC1
Outline: as §1

[12] = compound: O=C(CCCCCCC(=O)Nc1ccccc1)NO [vorinostat]
Outline: as §1

[13] = compound: O=C(O)c1ccc2c(c1)nc(Nc1cccc(Cl)c1)c1ccncc12 [silmitasertib]
Outline: as §1

[14] = compound: O=C1NC(=O)C(c2cnc3ccccn23)=C1c1cn2c3c(cc(F)cc13)CN(C(=O)N1CCCCC1)CC2
Outline: as §1

[15] = compound: c1cn2cc(-c3ccc4cn[nH]c4c3)nc(Nc3ccc(N4CCOCC4)cc3)c2n1 [entospletinib]
Outline: as §1

Measured: log2 fold change

MEX3A (UniProt A1L020)
inactive: [1] 0.026 | [2] -0.069 | [3] -0.029 | [4] -0.137 | [5] -0.084 | [6] 0.211 | [7] -0.106

MATR3 (UniProt P43243)
inactive: [1] -0.003 | [2] -0.009 | [3] -0.046 | [4] -0.005 | [5] 0.022 | [8] -0.119 | [6] -0.06 | [9] -0.003 | [10] -0.023 | [11] -0.026 | [7] 0.071 | [12] -0.102 | [13] 0.017 | [14] -0.009 | [15] 0.018

METTL2A (UniProt Q96IZ6)
active: [12] -0.28
inactive: [1] -0.012 | [2] 0.022 | [3] 0.044 | [4] -0.014 | [5] 0.03 | [8] -0.042 | [6] 0.01 | [9] 0.057 | [10] -0.029 | [11] 0.005 | [7] 0.033 | [13] -0.005 | [14] 0.058 | [15] -0.003

METTL18 (UniProt O95568)
inactive: [1] -0.027 | [2] 0.034 | [3] 0.212 | [4] -0.011 | [5] 0.009 | [8] -0.117 | [6] -0.049 | [9] 0.021 | [10] 0.033 | [11] -0.084 | [7] -0.012 | [12] 0.025 | [13] 0 | [14] -0.014 | [15] -0.164

METTL14 (UniProt Q9HCE5)
inactive: [1] 0.016 | [2] -0.039 | [3] 0.049 | [4] 0.007 | [5] -0.029 | [8] 0 | [6] 0.041 | [9] -0.003 | [10] 0.031 | [11] -0.015 | [7] -0.029 | [12] 0.018 | [13] -0.038 | [14] 0.006 | [15] -0.013

Pulled one by one from the entries so far, 2 records:
METTL18 (UniProt O95568)
inactive: [1] -0.027 | [2] 0.034 | [3] 0.212 | [4] -0.011 | [5] 0.009 | [8] -0.117 | [6] -0.049 | [9] 0.021 | [10] 0.033 | [11] -0.084 | [7] -0.012 | [12] 0.025 | [13] 0 | [14] -0.014 | [15] -0.164

MATR3 (UniProt P43243)
inactive: [1] -0.003 | [2] -0.009 | [3] -0.046 | [4] -0.005 | [5] 0.022 | [8] -0.119 | [6] -0.06 | [9] -0.003 | [10] -0.023 | [11] -0.026 | [7] 0.071 | [12] -0.102 | [13] 0.017 | [14] -0.009 | [15] 0.018

The results go on.

MBD3 (UniProt O95983)
inactive: [1] 0.011 | [2] -0.007 | [3] -0.026 | [4] 0.019 | [5] 0.021 | [8] 0.045 | [6] -0.004 | [9] 0.005 | [10] 0.035 | [11] 0.018 | [7] -0.061 | [12] -0.115 | [13] -0.027 | [14] 0.017 | [15] -0.003

METTL9 (UniProt Q9H1A3)
inactive: [1] 0.054 | [2] -0.004 | [3] -0.231 | [4] -0.033 | [5] 0.025 | [8] -0.041 | [6] 0.083 | [9] -0.077 | [10] 0.049 | [11] -0.089 | [12] 0.003 | [13] 0.225 | [14] 0.097

MCM3AP (UniProt O60318)
inactive: [1] 0.297 | [2] -0.036 | [3] -0.112 | [4] -0.311 | [5] -0.015 | [6] -0.057 | [10] 0.023 | [11] -0.001 | [7] -0.073 | [12] -0.087 | [13] -0.069

METTL21A (UniProt Q8WXB1)
inactive: [1] 0.017 | [2] 0.055 | [3] 0.023 | [4] 0.026 | [5] -0.064 | [8] -0.069 | [6] -0.005 | [9] -0.001 | [10] -0.007 | [11] 0.003 | [12] 0.07 | [13] -0.016 | [14] -0.013

MEX3B (UniProt Q6ZN04)
inactive: [1] -0.117 | [2] -0.152 | [3] 0.052 | [4] 0.119 | [5] 0.051 | [6] -0.042 | [10] -0.013 | [11] 0.009 | [12] -0.166 | [13] 0.014 | [15] 0.039

MDK (UniProt P21741)
inactive: [1] 0.074 | [2] -0.03 | [3] -0.003 | [4] 0.028 | [5] -0.079 | [8] 0.198 | [6] 0.097 | [9] 0.025 | [10] 0.029 | [11] 0.014 | [12] 0.076 | [13] -0.038 | [14] 0.01 | [15] 0.124

MDM1 (UniProt Q8TC05)
inactive: [1] -0.073 | [2] -0.008 | [3] 0.015 | [4] -0.149 | [5] 0.056 | [6] 0.006 | [10] -0.005 | [11] 0.061 | [7] 0.056 | [12] 0.085 | [13] 0.093 | [15] -0.119

MED25 isoform 3 (UniProt Q71SY5)
inactive: [1] 0.132 | [2] 0.026 | [3] -0.039 | [4] 0.097 | [5] -0.017 | [8] -0.008 | [6] -0.024 | [9] 0.029 | [10] -0.013 | [11] -0.073 | [13] 0.021 | [14] 0.024 | [15] 0.127
active: [12] -0.294

METTL3 (UniProt Q86U44)
inactive: [1] -0.013 | [2] 0.022 | [3] 0.001 | [4] 0.043 | [5] 0.019 | [8] 0.012 | [6] 0.014 | [9] -0.008 | [10] -0.026 | [11] -0.008 | [7] 0.021 | [12] 0.031 | [13] -0.015 | [14] -0.016 | [15] 0.008

MEIOB isoform 2 (UniProt Q8N635)
inactive: [1] -0.032 | [2] 0.369 | [3] -0.192 | [4] 0.049 | [5] -0.002 | [6] -0.181

MEF2C isoform 2 (UniProt Q06413)
inactive: [1] -0.012 | [2] -0.088 | [3] 0.062 | [4] 0.049 | [5] 0.067 | [8] 0.15 | [6] -0.088 | [9] -0.094 | [10] 0.048 | [7] -0.105 | [14] -0.016 | [15] -0.067

MBNL1 (UniProt C9JP00)
inactive: [1] -0.009 | [2] 0.031 | [3] -0.096 | [4] -0.009 | [5] -0.001 | [8] 0.05 | [6] -0.048 | [9] 0.069 | [10] 0.024 | [11] 0.098 | [7] 0.086 | [12] -0.001 | [13] -0.031 | [14] 0.039 | [15] -0.021

MED9 (UniProt Q9NWA0)
inactive: [1] -0.251 | [2] 0.065 | [3] 0.039 | [4] 0.007 | [5] -0.076 | [8] 0.151 | [6] 0.149 | [9] -0.045 | [10] -0.115 | [14] 0.016

MFSD14B (UniProt Q5SR56)
inactive: [1] 0.124 | [2] 0.084 | [4] 0.024 | [8] -0.2 | [6] -0.198 | [9] 0.027 | [11] -0.055 | [12] 0.114 | [13] 0.103 | [14] 0.276 | [15] 0.07
